Measurements from paper PMC7880997.

Protein sequences, listed by entry. Tags and fused reporters are not part of them. Lines headed by an entry give the natural chain unless they say otherwise; changes in a name come on top.
UniProt Q9VHG6: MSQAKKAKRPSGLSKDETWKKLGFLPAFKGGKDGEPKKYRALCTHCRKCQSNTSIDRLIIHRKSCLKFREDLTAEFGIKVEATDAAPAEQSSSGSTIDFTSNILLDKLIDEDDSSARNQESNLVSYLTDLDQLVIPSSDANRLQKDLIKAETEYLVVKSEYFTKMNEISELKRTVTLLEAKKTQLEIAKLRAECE

Biological target: T1, GFP-tagged recombinant WT CTCF N-terminus (dmCTCF residues 1-293) (Drosophila melanogaster) (UniProt Q9VS55)
T1 sequence: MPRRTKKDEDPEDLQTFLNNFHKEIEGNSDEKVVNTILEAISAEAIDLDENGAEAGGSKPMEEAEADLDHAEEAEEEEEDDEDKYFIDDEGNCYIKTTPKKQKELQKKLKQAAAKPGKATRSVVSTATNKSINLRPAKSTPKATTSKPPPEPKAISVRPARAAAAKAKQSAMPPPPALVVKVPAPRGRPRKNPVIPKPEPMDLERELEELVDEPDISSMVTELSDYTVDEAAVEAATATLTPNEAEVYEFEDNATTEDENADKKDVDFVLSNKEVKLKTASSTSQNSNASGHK
Assay: affinity purification with mass spectrometry; purified GFP-3C-CTCF1-293-3C-His6 immobilised on GFP binder beads, incubated with Drosophila embryo nuclear extract (IP buffer, 150 mM potassium acetate, 0.2% Igepal, 3 h, 4 °C); eluted with 3C protease; biological duplicates; only the target purified

binding	Substance
binds	Insulator binding factor 1 (Ibf1)
binds	Insulator binding factor 2 (Ibf2) (from UniProt Q9VHG6)

Results are given in words; binding and its absence hold for the method and conditions named. Binding seen in cells or lysates may run through a third protein. Here binding means that the protein was enriched with, or labelled near, the bait; the list need not be complete. Sequences can lack the tags named with a protein.
